At least one compound was matched to its structure with a doubt left.
Assay: Pharmacokinetics after administration of the subject combination

SMILES	time of Cmax post-dose (metabolite)
CC(NC(C)(C)C)C(O)c1cccc(Cl)c1 (stereo not drawn) [erythrohydroxybupropion]	approximately 4 hours
C[C@H](NC(C)(C)C)[C@@H](O)c1cccc(Cl)c1 [threohydroxybupropion]	approximately 4 hours
C[C@H]1NC(C)(C)CO[C@]1(O)c1cccc(Cl)c1 [hydroxybupropion]	about 3 hours

— patent US20250281430A1, “BUPROPION AS A MODULATOR OF DRUG ACTIVITY” (ANTECIP BIOVENTURES II LLC, priority 2022, published 2025)
